Results as given in US8722649B2, “Alpha-chloro and alpha-bromo phosphonate analogs of lysophosphatidic acid and methods of making and using thereof” (University of Utah Research Foundation, priority 2007, dated 2014).
“Also recorded” adds a separate entry of the source. At least one compound was matched to its structure with a doubt left.

Columns and labels:
[1] = target: T1, PPARγ (Homo sapiens, UniProt P37231); assay: PPARγ activation assay (PPRE-Acox-Rluc reporter in CV-1 cells); type: cell-based; conditions: 10 μM test analogue, 20 h
T1 construct: expressed in transfected cells; host or cells: CV-1 cells, transient (LipofectAMINE 2000)
T1 sequence (P37231 1-505): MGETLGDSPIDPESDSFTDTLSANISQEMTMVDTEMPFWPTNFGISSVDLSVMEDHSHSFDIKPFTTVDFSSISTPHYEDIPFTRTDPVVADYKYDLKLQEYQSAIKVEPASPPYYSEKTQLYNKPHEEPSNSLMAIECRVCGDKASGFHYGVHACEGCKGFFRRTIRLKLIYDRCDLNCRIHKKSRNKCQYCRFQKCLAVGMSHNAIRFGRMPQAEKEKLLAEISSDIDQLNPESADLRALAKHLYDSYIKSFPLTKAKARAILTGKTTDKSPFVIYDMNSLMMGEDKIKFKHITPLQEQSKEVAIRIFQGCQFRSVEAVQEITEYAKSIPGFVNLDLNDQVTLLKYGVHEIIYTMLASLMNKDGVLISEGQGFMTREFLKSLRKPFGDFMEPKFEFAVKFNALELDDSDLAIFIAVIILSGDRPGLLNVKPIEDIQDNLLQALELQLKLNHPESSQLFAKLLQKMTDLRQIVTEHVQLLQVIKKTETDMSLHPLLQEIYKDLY
Description: PPARγ activation assay. PPARγ activation was performed using CV-1 cells transfected with an acyl-coenzyme A oxidase-luciferase (PPRE-Acox-Rluc) reporter gene construct as previously reported. Briefly, CV-1 cells were plated in 96-well plates at a density of 1×10^4 cells per well in Dulbecco's modified Eagle's medium supplemented with 10% fetal bovine serum. The next day, the cells were transiently transfected with 125 ng of pGL3-PPRE-Acox-Rluc, 62.5 ng of pcDNA3.1 PPARγ, and 12.5 ng of pSV-β-galactosidase (Promega) using LipofectAMINE 2000 (Invitrogen). Twenty-four hours after transfection, cells were treated with OptiMEM (Invitrogen) containing 10 μM Rosiglitazone or 10 μM of the test analogue dissolved in DMSO for 20 h. Luciferase and β-galactosidase activities were measured with Steady-Glo® Luciferase Assay System (Promega) and the Galacto-Light Plus™ system (Applied Biosystems), respectively. Samples were run in quadruplicate and the mean ±standard errors were calculated. Data are representative of at least two independent transfections.

[2] = system: MDA-MB-231 cells; assay: Orthotopic breast cancer xenograft; type: in vivo, nude mice
Description: Orthotopic Human Breast Cancer Models. 4-week-old female athymic nude mice (Charles River Laboratories) were anesthetized by intraperitoneal injection of ketamine (80 mg/kg) and xylazine (10 mg/kg),according to the protocol approved by the University of Utah Institutional Animal Care and Use Committee (IACUC). Then the thoracic skin was sterilized with iodine and alcohol swabs.
MDA-MB-231 were trypsinized and resuspended in 2.5% CMHA-S and 3% gelatin-DTPH (v:v=1:1). Then, one volume of 4% PEGDA solution was added to four volumes of the cell suspension, and the resulting suspension was mixed gently by vortexing. The final cell concentration was 5×10^7 cells/ml. When the cell suspension was becoming viscous (ca. 3-5 min at 20° C.), 200 uL of gel was injected subcutaneously into the fourth mammary fat pad of each mouse, using a total of six mice per group.
The assessment of chemotherapy on breast cancer. The mice were randomly divided into 4 groups, including control (physiological saline), paclitaxel, LPA antagonist (19b), and paclitaxel followed by 19b. Six mice for each cell line were necessary to get statistically significant results according to literature. The control group received physiological saline i.p. injection twice per week starting at two weeks after the cell transplantation and ending at two weeks after the treatment. The treatment groups received i.p. administration of paclitaxel (10 mg/kg/day) or 19b (10 mg/kg/day) twice per week with the same period of control group. One additional group included 2 dose of paclitaxel followed by 2 dose of 19b with the same period of control group. The treatment was received […] twice per week for 2 weeks total.
The body weight and tumor size were measured twice per week, and general clinical status of the animals was also assessed every day. Perpendicular tumor diameters were measured using a vernier scale caliper and tumor volume estimated using the formula for ellipsoid: […] (mm^3)=[width(mm)^2×length(mm)]/2. Data are expressed as median tumor areas with interquartile ranges.
Animals were euthanized at 4 weeks postinjection or once any signs of broken skin caused by the extension of tumor are found. Tumors were excised with surrounding tissues for histological evaluation. Analysis of variance was used to analyze the statistical difference on tumor growth between different groups. The results are in FIG. 8, where it is shown that the volume of the tumors is the lowest when mice were treated with paclitaxel followed by the administration of 19b.
Xenograft establishment and chemotherapy. […] The tumor sizes were measured and calculated by formula: tumor size (mm^3)=[width (mm)]^2×[length (mm)]/2. […]

CCCCCCCCCCCCCCCC(=O)OC[C@@H](O)CC(Br)P(=O)(O)O (mixture of isomers) [Compound 1, [1-Bromo-3(S)-hydroxyl-4-(palmitoyloxy)butyl]-phosphonate]
PPARγ (PPRE luciferase reporter gene assay) [1]: NE (NE = no effect was shown at the highest concentration (30 μM) tested.)
tumor blood vessel density, Taxol followed by BrP-LPA 1 ([2]; 10 mg/kg each): statistically different from the control
tumor blood vessel density / angiogenesis (CD31), single agent ([2]; 10 mg/kg i.p.): highly significant reduction of angiogenesis; also recorded: lower blood vessel density
tumor size, single agent ([2]; 10 mg/kg i.p. twice per week for two weeks): reduction of tumor size; also recorded: significantly smaller; also recorded: reduces tumor size
tumor size, Taxol followed by BrP-LPA 1 ([2]; two injections Taxol 10 mg/kg week one, two injections BrP-LPA 1 10 mg/kg second week): reduction of tumor size
